From publication PMC6345825, “Crystal structure of the plant symporter STP10 illuminates sugar uptake mechanism in monosaccharide transporter superfamily” (Nature Communications, 2019) come the findings set out here.

These are yes or no findings as the source states them, for the method shown.

The experiment deals with Arabidopsis thaliana Sugar Transport Protein STP10 (Arabidopsis thaliana) (UniProt Q9LT15). The experiment can be described thus: crystal structure; lipidic cubic phase (monoolein/cholesterol), 100 mM D-glucose, 0.1 M NaCitrate pH 4.5, 20 °C; space group P21, one STP10 monomer in the asymmetric unit; both purified.

B1: Arabidopsis thaliana Sugar Transport Protein STP10 (protein, UniProt Q9LT15 1-514)
chain: MAGGAFVSEGGGGGRSYEGGVTAFVIMTCIVAAMGGLLFGYDLGISGGVTSMEEFLTKFFPQVESQMKKAKHDTAYCKFDNQMLQLFTSSLYLAALVASFMASVITRKHGRKVSMFIGGLAFLIGALFNAFAVNVSMLIIGRLLLGVGVGFANQSTPVYLSEMAPAKIRGALNIGFQMAITIGILVANLINYGTSKMAQHGWRVSLGLAAVPAVVMVIGSFILPDTPNSMLERGKNEEAKQMLKKIRGADNVDHEFQDLIDAVEAAKKVENPWKNIMESKYRPALIFCSAIPFFQQITGINVIMFYAPVLFKTLGFGDDAALMSAVITGVVNMLSTFVSIYAVDRYGRRLLFLEGGIQMFICQLLVGSFIGARFGTSGTGTLTPATADWILAFICVYVAGFAWSWGPLGWLVPSEICPLEIRPAGQAINVSVNMFFTFLIGQFFLTMLCHMKFGLFYFFASMVAIMTVFIYFLLPETKGVPIEEMGRVWKQHWFWKKYIPEDAIIGGHDDNNTN
B1: the binding result is given as “no binding”.
